Test [1] addresses T1, Recombinant canine CD40 extracellular domain with human IgG1 Fc domain tag (canine; human) (UniProt Q7YRL5).
T1 sequence (looked up): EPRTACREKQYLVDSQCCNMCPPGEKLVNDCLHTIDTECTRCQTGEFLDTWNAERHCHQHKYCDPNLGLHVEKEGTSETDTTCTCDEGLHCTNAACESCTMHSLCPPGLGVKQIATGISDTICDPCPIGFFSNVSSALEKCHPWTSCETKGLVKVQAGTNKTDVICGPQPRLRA
Briefly: pair-wise SPR, caCD40-Fc immobilised.

Test [2] concerns the target T1, Recombinant canine CD40 extracellular domain with human IgG1 Fc domain tag (canine; human). The test is described as follows: restates the SPR results, canine CD40-Fc immobilised.
Test [3] shares this target. The test is described as follows: SPR, canine CD40-Fc immobilised (kinetics and binding analysis). A general note: In SPR one partner is held on a chip, and binding of the other changes the refractive index at the surface.
For test [4] the target is unchanged. Briefly: SPR pair-wise binding, caCD40-Fc on the chip, 180 s contact.
Test [5] has the same target. Briefly: SPR (Biacore T200), caCD40-Fc immobilised, purified antibody 6.25-50 µg/ml as analyte.
The target is the same in test [6]. Briefly: SPR (Biacore T200), caCD40-Fc on the chip, antibody as analyte, 180 s contact.
Test [7] has the same target. Briefly: SPR (Biacore T200), caCD40-Fc immobilised, purified antibody 6.25-50 µg/ml as analyte; response called unusual (possible aggregates or non-specific binding to the chip).
The target is the same in test [8]. Briefly: SPR single-cycle kinetics, canine CD40-Fc immobilised; compared with parental mouse antibody SVX-2001.

These are yes or no findings as the source states them, for the method shown. Some entries that bind do so weakly or less than the wild type. Sequences can lack the tags named with a protein.

B1: StP1.RD1.G9.H5 (antibody, V domains shown)
VH: QVQLQQSGPELVQPGASVKISCRASGYSFTSYYIHWVKQRPGQGLEWIGWIFPGSGNTKYNEKFRGKATLTADTSSSTAYTQVSSLTSEDSAVYFCARKSPYGNYAMDYWGQGTSVTVSS
VL: DILLTQSPAILSVSPGERVSFSCRASQSIGTSIHWYQQRTNGSPRLLIKSASESISGIPSRFSGSGSGTDFTLSINSVESEDIADYYCQQSNSWPYTFGGGTKLEIKRADAAPTVS
notes: also called purified monoclonal antibody from hybridoma cell-line StP1.RD1.G9.H5
On to B1, for which the binding entry in test [1], in test [2], in test [3], in test [4], in test [5] and in test [6] was “binds” in each case.

B2: StP1.RE2.D7b.B5 (antibody, V domains shown)
VH: QVQLQQSGPELVKPGASVKISCKASGYSFTSYYIHWVKQSPGQGLEWIGWIFPGSGNTKYNEKFKGKATLTADTSSSTAYMQLSSLTSEDSAVYFCARRGTTRDALDYWGQGTSVTVSS
VL: DILLTQSPAILSVSPGERVSFSCRASQSIGTSIHWFQQRTNGSPRVLIKYASQSISGIPSRFSGSGSGTDFTLSINSVESEDIADYYCQQSYTWPFTFGSGTKLAIKR
Consider B2, for which the binding result in test [5], in test [6] and in test [7] was “binds” each time.

B3: SVX-2001A (antibody)
heavy: QVQLQQSGPELVQPGASVKISCRASGYSFTSYYIHWVKQRPGQGLEWIGWIFPGSGNTKYNEKFRGKATLTADTSSSTAYTQVSSLTSEDSAVYFCARKSPYGNYAMDYWGQGTSVTVSSASTTAPSVFPLAPSCGSTSGSTVALACLVSGYFPEPVTVSWNSGSLTSGVHTFPSVLQSSGLHSLSSMVTVPSSRWPSETFTCNVVHPASNTKVDKPVFNECRCTDTPPCPVPEPLGGPSVLIFPPKPKDILRITRTPEVTCVVLDLGREDPEVQISWFVDGKEVHTAKTQSREQQFNGTYRVVSVLPIEHQDWLTGKEFKCRVNHIDLPSPIERTISKARGRAHKPSVYVLPPSPKELSSSDTVSITCLIKDFYPPDIDVEWQSNGQQEPERKHRMTPPQLDEDGSYFLYSKLSVDKSRWQQGDPFTCAVMHETLQNHYTDLSLSHSPGK
light: DILLTQSPAILSVSPGERVSFSCRASQSIGTSIHWYQQRTNGSPRLLIKSASESISGIPSRFSGSGSGTDFTLSINSVESEDIADYYCQQSNSWPYTFGGGTKLEIKRNDAQPAVYLFQPSPDQLHTGSASVVCLLNSFYPKDINVKWKVDGVIQDTGIQESVTEQDKDSTYSLSSTLTMSSTEYLSHELYSCEITHKSLPSTLIKSFQRSECQRVD
notes: also called chimeric dog IgGA, k antibody derived from StP1.RD1.G9.H5
Regarding B3, the binding result in test [8] is “binds”.

B4: SVX-2001C (antibody)
heavy: QVQLQQSGPELVQPGASVKISCRASGYSFTSYYIHWVKQRPGQGLEWIGWIFPGSGNTKYNEKFRGKATLTADTSSSTAYTQVSSLTSEDSAVYFCARKSPYGNYAMDYWGQGTSVTVSSASTTAPSVFPLAPSCGSQSGSTVALACLVSGYIPEPVTVSWNSVSLTSGVHTFPSVLQSSGLYSLSSMVTVPSSRWPSETFTCNVAHPATNTKVDKPVAKECECKCNCNNCPCPGCGLLGGPSVFIFPPKPKDILVTARTPTVTCVVVDLDPENPEVQISWFVDSKQVQTANTQPREEQSNGTYRVVSVLPIGHQDWLSGKQFKCKVNNKALPSPIEEIISKTPGQAHQPNVYVLPPSRDEMSKNTVTLTCLVKDFFPPEIDVEWQSNGQQEPESKYRMTPPQLDEDGSYFLYSKLSVDKSRWQRGDTFICAVMHEALHNHYTQISLSHSPGK
light: B3 light
notes: also called chimeric dog IgGC, k antibody derived from StP1.RD1.G9.H5
Take B4: the binding entry in test [8] is “binds”.

B5: SVX-2001B (antibody)
heavy: QVQLQQSGPELVQPGASVKISCRASGYSFTSYYIHWVKQRPGQGLEWIGWIFPGSGNTKYNEKFRGKATLTADTSSSTAYTQVSSLTSEDSAVYFCARKSPYGNYAMDYWGQGTSVTVSSASTTAPSVFPLAPSCGSTSGSTVALACLVSGYFPEPVTVSWNSGSLTSGVHTFPSVLQSSGLYSLSSMVTVPSSRWPSETFTCNVAHPASKTKVDKPVPKRENGRVPRPPDCPKCPAPEMLGGPSVFIFPPKPKDTLLIARTPEVTCVVVDLDPEDPEVQISWFVDGKQMQTAKTQPREEQFNGTYRVVSVLPIGHQDWLKGKQFTCKVNNKALPSPIERTISKARGQAHQPSVYVLPPSREELSKNTVSLTCLIKDFFPPDIDVEWQSNGQQEPESKYRTTPPQLDEDGSYFLYSKLSVDKSRWQRGDTFICAVMHEALHNHYTQESLSHSPGK
light: B3 light
notes: also called chimeric dog IgGB, k antibody derived from StP1.RD1.G9.H5
For the molecule B5, the binding result in test [8] is reported as “binds”.

B6: SVX-2001D (antibody)
heavy: QVQLQQSGPELVQPGASVKISCRASGYSFTSYYIHWVKQRPGQGLEWIGWIFPGSGNTKYNEKFRGKATLTADTSSSTAYTQVSSLTSEDSAVYFCARKSPYGNYAMDYWGQGTSVTVSSASTTAPSVFPLAPSCGSTSGSTVALACLVSGYFPEPVTVSWNSGSLTSGVHTFPSVLQSSGLYSLSSTVTVPSSRWPSETFTCNVVHPASNTKVDKPVPKESTCKCISPCPVPESLGGPSVFIFPPKPKDILRITRTPEITCVVLDLGREDPEVQISWFVDGKEVHTAKTQPREQQFNSTYRVVSVLPIEHQDWLTGKEFKCRVNHIGLPSPIERTISKARGQAHQPSVYVLPPSPKELSSSDTVTLTCLIKDFFPPEIDVEWQSNGQPEPESKYHTTAPQLDEDGSYFLYSKLSVDKSRWQQGDTFTCAVMHEALQNHYTDLSLSHSPGK
light: B3 light
notes: also called chimeric dog IgGD, k antibody derived from StP1.RD1.G9.H5
Take B6: in test [8], the binding entry is given as “binds”.

Values taken from patent US20260146099A1 (SELVAX, published 2026).
